The data set has as its system DOCA-salt hypertensive rats. As to the kind of experiment: Effects of cyclosporine A and tacrolimus in DOCA-salt hypertensive rats (albuminuria). It is filed as in vivo, Sprague Dawley rats. Particulars: DOCA-salt treatment with cyclosporine A or tacrolimus. As to the method:
The DOCA-salt hypertensive rat model is a well-established model of mineralocorticoid hypertension with renal dysfunction leading to an FSGS phenotype, characterized by increased levels of urinary protein and albumin excretion. [Schenk et al., “The pathogenesis of DOCA-salt hypertension,” J. Pharmacol. Toxicol.
Six to seven weeks old Sprague Dawley rats were unilaterally nephrectomized; after one-week recovery, rats were implanted with a DOCA pellet (45 mg) and provided tap water containing 0.9% NaCl and 0.2% KCl (Day 1) for a 3 weeks treatment. […] Sham animals, implanted with a silicone-water pellet, were given tap water and received administration of the vehicle. Proteinuria and albuminuria were recorded every week, and body weight was recorded daily.

Here are results for one compound from US20240091303A1, “BIOMARKER-BASED TREATMENT OF FOCAL SEGMENTAL GLOMERULOSCLEROSIS AND DIABETIC KIDNEY DISEASE” (Goldfinch Bio, Inc., priority 2019, published 2024).

Molecules are shown by their SMILES.

With `C=CC[C@@H]1/C=C(\C)C[C@H](C)C[C@H](OC)[C@H]2O[C@@](O)(C(=O)C(=O)N3CCCC[C@H]3C(=O)O[C@H](/C(C)=C/[C@@H]3CC[C@@H](O)[C@H](OC)C3)[C@H](C)[C@@H](O)CC1=O)[C@H](C)C[C@@H]2OC` [tacrolimus, Tacrolimus], the “water intake per day” value is recorded as “elevated”.
